Source: patent US12329799B2, “Peptidyl inhibitors of calcineurin-NFAT interaction” (Ohio State Innovation Foundation, priority 2018, dated 2025)

Assay: Caco-2 permeability assay
Assay type: in vitro ADME
Settings: human, Caco-2, pH 7.4, N = 2
Protocol: Caco-2 permeability assay. To assay the permeability of test compounds by Caco-2 cell model, Caco-2 cells were cultured to confluency before being trypsinized and seeded onto filter transwell inserts at a density of 30,000 cells/well in DMEM medium. Cells were cultured in a humidified atmosphere with 5% CO2 at 37° C. After overnight attachment, cell medium was replaced with fresh medium at both apical and basolateral sides every other day. The cell monolayers are ready for the assay 20 days post seeding. […] The dosing solution at 10 μM was obtained by diluting 10 mM stock solution in HBSS medium (pH 7.4, 25 mM HEPES) freshly before the assay. Terfenadine (25 ng/mL) and Tolbutamide (50 ng/mL) were added into dosing solution as internal standards. […] The culture medium from either the basolateral side (plate B) or apical side (plate A) were aspirated and then rinsed with HBSS medium once. Afterwards, the dosing medium was added to either basolateral or apical side. […] Samples were quenched with acetonitrile/methanol (1:1 v/v), centrifuged, and analyzed on a Shimadzu reversed-phase HPLC and Sciex API4500 Q trap instrument.
Permeability parameters were calculated using the following equations and shown in Table 10: Papp=(Conc.receiver,90 min*Volumereceiver)/(Time*Membrane Area*Conc.donor,0 min) Efflux Ratio=Papp[B to A]/Papp[A to B]

## CC(C)NCC(O)COc1cccc2ccccc12 (stereo not shown) [Propranolol]
  Papp A→B at 90 min, 10 μM: 35 ×10⁻⁶ cm/s
